No constants are given. Whether binding was seen depends on the method and setting. In cells and extracts the contact can be indirect. Here binding means that the protein was enriched with, or labelled near, the bait; the list need not be complete.
B1: BIC1 (Blue-light Inhibitor of Cryptochromes 1), endogenous (protein, UniProt Q9LXJ1 1-140)
chain: MMNIDDTTSPMAHPIGPSQPPSDQTKQDPPSLPQEAASSVSADKKDLALLEEKPKQSQEEDRVDTGRERLKKHRREIAGRVWIPEIWGQEELLKDWIDCSTFDTCLVPAGISSARTALVEEARRAASASGGLHNRCLILR
B2: ubiquitin-specific protease 12 (UBP12), endogenous (enzyme, UniProt Q9FPT1 1-1116)
chain: MTMMTPPPVDQPEDEEMLVPNSDLVDGPAQPMEVTQPETAASTVENQPAEDPPTLKFTWTIPNFSRQNTRKHYSDVFVVGGYKWRILIFPKGNNVDHLSMYLDVSDAASLPYGWSRYAQFSLAVVNQIHTRYTVRKETQHQFNARESDWGFTSFMPLSELYDPSRGYLVNDTVLVEAEVAVRKVLDYWSYDSKKETGFVGLKNQGATCYMNSLLQTLYHIPYFRKAVYHMPTTENDAPTASIPLALQSLFYKLQYNDTSVATKELTKSFGWDTYDSFMQHDVQELNRVLCEKLEDKMKGTVVEGTIQQLFEGHHMNYIECINVDFKSTRKESFYDLQLDVKGCKDVYASFDKYVEVERLEGDNKYHAEGHGLQDAKKGVLFIDFPPVLQLQLKRFEYDFMRDTMVKINDRYEFPLELDLDREDGKYLSPDADRSVRNLYTLHSVLVHSGGVHGGHYYAFIRPTLSDQWYKFDDERVTKEDLKRALEEQYGGEEELPQTNPGFNNNPPFKFTKYSNAYMLVYIRESDKDKIICNVDEKDIAEHLRVRLKKEQEEKEDKRRYKAQAHLYTIIKVARDEDLKEQIGKDIYFDLVDHDKVRSFRIQKQTPFQQFKEEVAKEFGVPVQLQRFWIWAKRQNHTYRPNRPLTPQEELQPVGQIREASNKANTAELKLFLEVEHLDLRPIPPPEKSKEDILLFFKLYDPEKAVLSYAGRLMVKSSSKPMDITGKLNEMVGFAPDEEIELFEEIKFEPCVMCEHLDKKTSFRLCQIEDGDIICFQKPLVNKEIECLYPAVPSFLEYVQNRQLVRFRALEKPKEDEFVLELSKQHTYDDVVEKVAEKLGLDDPSKLRLTSHNCYSQQPKPQPIKYRGVDHLSDMLVHYNQTSDILYYEVLDIPLPELQGLKTLKVAFHHATKEEVVIHNIRLPKQSTVGDVINELKTKVELSHPDAELRLLEVFYHKIYKIFPSTERIENINDQYWTLRAEEIPEEEKNIGPNDRLILVYHFAKETGQNQQVQNFGEPFFLVIHEGETLEEIKNRIQKKLHVSDEDFAKWKFAFMSMGRPEYLQDTDVVYNRFQRRDVYGAFEQYLGLEHADTTPKRAYAANQNRHAYEKPVKIYN
B3: ubiquitin-specific protease 13 (UBP13), endogenous (enzyme, UniProt Q84WU2 1-1115)
chain: MTMMTPPPLDQQEDEEMLVPNPDLVEGPQPMEVAQTDPAATAVENPPPEDPPSLKFTWTIPMFTRLNTRKHYSDVFVVGGYKWRILIFPKGNNVDHLSMYLDVADAANLPYGWSRYSQFSLAVVNQVNNRYSIRKETQHQFNARESDWGFTSFMPLSELYEPTRGYLVNDTVLIEAEVAVRKVLDYWSYDSKKETGFVGLKNQGATCYMNSLLQTLYHIPYFRKAVYHMPTTENDAPTASIPLALQSLFYKLQYNDTSVATKELTKSFGWDTYDSFMQHDVQELNRVLCEKLEDKMKGTVVEGTIQKLFEGHHMNYIECINVDYKSTRKESFYDLQLDVKGCKDVYASFDKYVEVERLEGDNKYHAEGHDLQDAKKGVLFIDFPPVLQLQLKRFEYDFMRDTMVKINDRYEFPLQLDLDREDGRYLSPDADKSVRNLYTLHSVLVHSGGVHGGHYYAFIRPTLSDQWYKFDDERVTKEDVKRALEEQYGGEEELPQNNPGFNNPPFKFTKYSNAYMLVYIRESDKDKIICNVDEKDIAEHLRVRLKKEQEEKEDKRKYKAQAHLFTTIKVARDDDITEQIGKNIYFDLVDHEKVRSFRIQKQTPFQQFKEEVAKEFGVPVQLQRFWIWAKRQNHTYRPNRPLSPNEELQTVGQIREASNKANNAELKLFLEIERGPDDLPIPPPEKTSEDILLFFKLYDPENAVLRYVGRLMVKSSSKPMDIVGQLNKMAGFAPDEEIELFEEIKFEPCVMCEQIDKKTSFRLCQIEDGDIICYQKPLSIEESEFRYPDVPSFLEYVQNRELVRFRTLEKPKEDEFTMELSKLHTYDDVVERVAEKLGLDDPSKLRLTSHNCYSQQPKPQPIKYRGVDHLSDMLVHYNQTSDILYYEVLDIPLPELQGLKTLKVAFHSATKDEVIIHNIRLPKQSTVGDVINELKTKVELSHQDAELRLLEVFFHKIYKIFPSTERIENINDQYWTLRAEEIPEEEKNIGPNDRLIHVYHFTKEAGQNQQVQNFGEPFFLVIHEGETLEEIKTRIQKKLHVPDEDFAKWKFASFSMGRPDYLLDTDVVYNRFQRRDVYGAWEQYLGLEHIDNAPKRAYAANQNRHAYEKPVKIYN

Sequences of proteins named here, by UniProt entry; tags and fusion partners are left off.
UniProt Q96524: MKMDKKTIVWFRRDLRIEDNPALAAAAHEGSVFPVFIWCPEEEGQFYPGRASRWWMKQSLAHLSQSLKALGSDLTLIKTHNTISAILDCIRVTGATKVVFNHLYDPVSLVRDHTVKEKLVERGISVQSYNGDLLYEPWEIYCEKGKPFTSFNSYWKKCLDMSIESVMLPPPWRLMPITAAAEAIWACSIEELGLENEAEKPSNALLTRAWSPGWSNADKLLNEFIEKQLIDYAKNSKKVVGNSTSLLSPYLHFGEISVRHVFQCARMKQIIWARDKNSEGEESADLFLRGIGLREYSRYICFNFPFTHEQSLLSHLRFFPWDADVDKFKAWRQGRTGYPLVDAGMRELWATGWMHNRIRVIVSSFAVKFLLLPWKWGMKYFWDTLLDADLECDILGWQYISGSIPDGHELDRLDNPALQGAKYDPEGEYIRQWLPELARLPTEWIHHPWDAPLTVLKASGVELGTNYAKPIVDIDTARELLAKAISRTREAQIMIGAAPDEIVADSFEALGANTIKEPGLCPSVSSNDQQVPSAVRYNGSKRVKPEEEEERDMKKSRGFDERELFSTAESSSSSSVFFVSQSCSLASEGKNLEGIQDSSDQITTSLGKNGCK
UniProt Q43125: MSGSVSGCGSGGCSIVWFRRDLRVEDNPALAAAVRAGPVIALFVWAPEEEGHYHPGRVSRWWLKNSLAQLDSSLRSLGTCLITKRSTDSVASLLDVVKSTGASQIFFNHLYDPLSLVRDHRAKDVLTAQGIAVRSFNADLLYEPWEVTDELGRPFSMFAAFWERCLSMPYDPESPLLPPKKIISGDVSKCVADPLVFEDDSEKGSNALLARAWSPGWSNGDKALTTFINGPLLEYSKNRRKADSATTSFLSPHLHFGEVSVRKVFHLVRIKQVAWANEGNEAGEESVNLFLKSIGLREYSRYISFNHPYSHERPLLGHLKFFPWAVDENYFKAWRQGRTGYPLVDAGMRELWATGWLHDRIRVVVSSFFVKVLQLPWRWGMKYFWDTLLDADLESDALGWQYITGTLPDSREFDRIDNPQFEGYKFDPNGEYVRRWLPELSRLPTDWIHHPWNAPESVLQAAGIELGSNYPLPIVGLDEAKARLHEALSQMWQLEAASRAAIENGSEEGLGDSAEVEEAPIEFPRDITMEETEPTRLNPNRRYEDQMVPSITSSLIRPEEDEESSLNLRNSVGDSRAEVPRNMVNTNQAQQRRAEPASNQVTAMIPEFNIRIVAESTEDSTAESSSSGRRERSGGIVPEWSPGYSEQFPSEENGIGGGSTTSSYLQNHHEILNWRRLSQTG

These molecules were tested against 9×Myc-6×His-3×Flag-CRY2 (Arabidopsis thaliana) (UniProt Q96524) (assay: affinity purification with mass spectrometry).
“CRY1 (cryptochrome 1), endogenous (from UniProt Q43125 1-681) (receptor)” was tested, and the binding was “binds”.
With B1 the binding was “binds”.
For B2, the binding was “binds”.
In the case of B3, the binding is reported as “binds”.
